Assay results reported in US20060199228A1 (KING S COLLEGE LONDON, published 2006).
These are yes or no findings as the source states them, for the method shown. A result given as binding can be weak or reduced; the word gives no strength.

B1: preproinsulin peptide C19-A3 (peptide)
peptide: GSLQPLALEGSLQKRGIV
notes: Synthetic peptide; also called PI C19-A3; Proinsulin C19-A3

These binders were tested against HLA-DR4 immunoaffinity-purified from Priess EBV-transformed B cells (DRB1*0401) (assay: competition binding assay, DELFIA).

| binding | Binder |
| --- | --- |
| binds | QPLALEGSLQKRGIVEQ (Synthetic peptide) [preproinsulin peptide C22-A5] |
| binds | GGGPGAGSLQPLALEGSLQK (Synthetic peptide; also called C13-32) [preproinsulin peptide C13-C32] |
| binds | B1 |

The binders below were run against HLA-DR4 immunoaffinity-purified from Priess EBV-transformed B cells (DRB1*0401) (assay: acid elution from HLA-DR4 of preproinsulin-pulsed Priess cells, MALDI-TOF MS).

| binding | Binder |
| --- | --- |
| binds | QPLALEGSLQKRGIVEQ (Synthetic peptide) [preproinsulin peptide C22-A5] |
| binds | GGGPGAGSLQPLALEGSLQK (Synthetic peptide; also called C13-32) [preproinsulin peptide C13-C32] |
| binds | B1 |
| binds | DLQVGQVELGGGPGAGSLQPLALE [preproinsulin peptide C4-C27] |
